Results are given in words; binding and its absence hold for the method and conditions named. In cells and extracts the contact can be indirect. Some results given as binding are weak or reduced against the parent protein; the word gives no strength. For part of these data: Tags and fused reporters may be left off the sequences shown.
How the values were obtained:
Test in all cases: pull-down; GST-tagged protein expressed in HEK293 cells isolated from the lysate on glutathione-Sepharose 4B; blotted for HA (transfected Drp1) or for endogenous Drp1; also with overexpression of SENP3, SENP2 or SENP5
GST-Fis1 (mouse) = target: T1, GST-Fis1 (mouse) (UniProt Q9CQ92)
T1 sequence: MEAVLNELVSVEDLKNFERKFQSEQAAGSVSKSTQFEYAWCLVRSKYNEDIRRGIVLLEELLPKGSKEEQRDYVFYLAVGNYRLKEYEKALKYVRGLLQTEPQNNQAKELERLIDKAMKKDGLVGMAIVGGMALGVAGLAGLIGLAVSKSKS

Chains of the proteins cited; added tags and fusions are not shown. Lines headed by an entry give the natural chain unless they say otherwise; changes in a name come on top. A line that says so, or that is headed by a name, gives the form on record, which may keep a tag or linker.
UniProt Q8BGV8: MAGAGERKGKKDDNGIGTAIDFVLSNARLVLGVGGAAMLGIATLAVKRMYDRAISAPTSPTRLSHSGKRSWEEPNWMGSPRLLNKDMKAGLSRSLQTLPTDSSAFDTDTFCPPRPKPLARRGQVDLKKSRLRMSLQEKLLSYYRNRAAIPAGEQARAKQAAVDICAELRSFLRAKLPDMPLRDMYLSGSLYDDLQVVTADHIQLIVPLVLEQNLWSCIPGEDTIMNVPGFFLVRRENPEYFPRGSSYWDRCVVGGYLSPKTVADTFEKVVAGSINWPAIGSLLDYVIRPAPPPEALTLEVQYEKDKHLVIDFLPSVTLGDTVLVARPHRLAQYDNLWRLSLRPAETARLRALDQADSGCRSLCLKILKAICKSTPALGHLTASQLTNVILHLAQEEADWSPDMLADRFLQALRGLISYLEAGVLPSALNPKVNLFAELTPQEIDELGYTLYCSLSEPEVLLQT
HA-Drp1 (human isoform 3) (O00429-4, form named): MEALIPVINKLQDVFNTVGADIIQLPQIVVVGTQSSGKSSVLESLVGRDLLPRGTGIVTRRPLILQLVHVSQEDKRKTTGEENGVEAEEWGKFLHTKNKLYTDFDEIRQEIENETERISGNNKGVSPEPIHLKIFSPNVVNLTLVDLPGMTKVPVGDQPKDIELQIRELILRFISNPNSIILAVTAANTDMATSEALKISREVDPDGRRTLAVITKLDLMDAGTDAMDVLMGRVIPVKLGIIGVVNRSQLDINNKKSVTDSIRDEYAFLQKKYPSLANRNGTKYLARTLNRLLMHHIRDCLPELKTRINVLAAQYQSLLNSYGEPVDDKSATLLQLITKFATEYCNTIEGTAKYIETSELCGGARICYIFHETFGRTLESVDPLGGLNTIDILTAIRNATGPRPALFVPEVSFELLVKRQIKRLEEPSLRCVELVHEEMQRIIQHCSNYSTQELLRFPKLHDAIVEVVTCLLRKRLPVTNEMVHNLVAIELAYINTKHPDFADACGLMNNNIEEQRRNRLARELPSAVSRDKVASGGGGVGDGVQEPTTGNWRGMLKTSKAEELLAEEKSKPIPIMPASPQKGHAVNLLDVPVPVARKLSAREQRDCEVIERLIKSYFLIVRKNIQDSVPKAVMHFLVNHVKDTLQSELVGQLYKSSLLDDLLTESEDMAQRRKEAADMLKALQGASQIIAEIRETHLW

GST-MID51 (mouse) = GST-MID51 (mouse) (UniProt Q8BGV8)
GST-MID49 (mouse) = target: T2, GST-MID49 (mouse) (UniProt Q5NCS9)
T2 sequence: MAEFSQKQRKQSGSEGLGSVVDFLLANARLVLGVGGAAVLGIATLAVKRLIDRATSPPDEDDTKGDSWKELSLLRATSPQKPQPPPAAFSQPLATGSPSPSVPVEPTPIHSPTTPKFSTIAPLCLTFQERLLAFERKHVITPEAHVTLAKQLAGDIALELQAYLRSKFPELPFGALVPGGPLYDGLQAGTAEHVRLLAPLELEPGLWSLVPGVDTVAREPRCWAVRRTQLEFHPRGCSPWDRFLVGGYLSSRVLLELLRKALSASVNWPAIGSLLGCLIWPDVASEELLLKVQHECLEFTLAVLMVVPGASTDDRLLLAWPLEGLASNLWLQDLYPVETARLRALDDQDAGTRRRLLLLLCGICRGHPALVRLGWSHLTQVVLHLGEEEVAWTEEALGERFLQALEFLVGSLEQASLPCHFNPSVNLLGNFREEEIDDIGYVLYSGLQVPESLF

Measured: binding

HA-Drp1 (human isoform 3) (from UniProt O00429-4 1-699)
binds: all assays above

From paper PMC5338345
